The target of assay [1] is T1, GFP-A (SpoIVFA fused to GFP) (B. subtilis) (UniProt P26936).
T1 sequence: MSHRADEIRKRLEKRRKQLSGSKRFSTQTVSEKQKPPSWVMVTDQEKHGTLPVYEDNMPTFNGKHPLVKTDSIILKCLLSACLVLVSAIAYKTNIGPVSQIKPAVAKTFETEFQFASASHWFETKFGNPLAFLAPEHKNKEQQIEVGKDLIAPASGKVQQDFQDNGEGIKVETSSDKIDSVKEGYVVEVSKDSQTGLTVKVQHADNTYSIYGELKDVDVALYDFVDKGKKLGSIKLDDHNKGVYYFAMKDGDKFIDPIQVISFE
The assay is described as follows: co-IP; B-GFP or GFP-A immunoprecipitated from detergent (digitonin)-solubilized membrane preparations, hour 3.5 of sporulation; silver-stained gel, MS or mutant strains for identification, immunoblots of load, flow through and IP. On the technique in general: In western blotting, separated proteins are transferred to a membrane and probed.

In assay [2] the target is T2, SpoIVFB (B) catalytic mutant E44Q fused to GFP (B. subtilis) (UniProt P26937).
T2 sequence: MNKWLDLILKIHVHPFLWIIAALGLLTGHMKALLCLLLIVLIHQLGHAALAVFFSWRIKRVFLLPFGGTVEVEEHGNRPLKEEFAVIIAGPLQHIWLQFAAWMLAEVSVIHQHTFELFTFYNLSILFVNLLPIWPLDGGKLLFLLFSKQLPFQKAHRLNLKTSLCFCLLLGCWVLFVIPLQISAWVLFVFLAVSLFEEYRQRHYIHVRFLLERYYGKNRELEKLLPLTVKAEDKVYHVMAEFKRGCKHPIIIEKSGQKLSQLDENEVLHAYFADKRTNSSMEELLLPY
Description: co-IP; B(E44Q)-GFP immunoprecipitated with anti-GFP antibody resin from crude membranes solubilized with 0.5% digitonin, sporulating cells at hour 4 (IVB+ strain; ΔIVB and ΔsigK strains compared); 4 h at 4°C; SDS-PAGE with silver staining, MS of excised bands, anti-σ^K immunoblot.

Results are given in words; binding and its absence hold for the method and conditions named. Binding seen in cells or lysates may run through a third protein. Some entries that bind do so weakly or less than the wild type. Where a sequence is shown, tags or fusion partners need not be part of it.

B1: SpoIIIAH (AH) (protein, UniProt P49785 1-218)
chain: MLKKQTVWLLTMLSLVVVLSVYYIMSPESKNAVQMQSEKSASDSGEVATEKAPAKQDTKEKSGTETEKGKEDGTKGTKDSSADKETSAEASEKGTVVTETADDDLFTTYRLDLEDARSKEREELNAIVSSDDATAKEKSEAYDKMTALSEVEGTEKQLETLIKTQGYEDALVNAEGDKINITVKSDKHSKSKATAIIDLVAKEIKTMKDVAVTFEPSK
Regarding B1, the binding result in assay [1] and in assay [2] was “binds” each time.

B2: SpoIIQ (Q) (protein, UniProt P71044 1-283)
chain: MREEEKKTSQVKKLQQFFRKRWVFPAIYLVSAAVILTAVLWYQSVSNDEVKDQLADNGGNSAYDNNDDAVEVGKSMENVAMPVVDSENVSVVKKFYETDAAKEEKEAALVTYNNTYSLSKGIDLAEKDGKDFDVSASLSGTVVKAEKDPVLGYVVEVEHADGLSTVYQSLSEVSVEQGDKVKQNQVIGKSGKNLYSEDSGNHVHFEIRKDGVAMNPLNFMDKPVSSIEKAATQETEESIQQSSEKKDGSTEKGTEEKSGEKKDDSTDKSGSKESSTTEDTEQS
As to B2, the binding entry in assay [1] and in assay [2] was “binds” each time.

(Values after PMC6242693.)
